Here are results for four substances from PMC9481740.

Sequences of proteins named here, by UniProt entry; tags and fusion partners are left off. A change or cut given only in a name is not applied to a line headed by its entry.
UniProt P50748: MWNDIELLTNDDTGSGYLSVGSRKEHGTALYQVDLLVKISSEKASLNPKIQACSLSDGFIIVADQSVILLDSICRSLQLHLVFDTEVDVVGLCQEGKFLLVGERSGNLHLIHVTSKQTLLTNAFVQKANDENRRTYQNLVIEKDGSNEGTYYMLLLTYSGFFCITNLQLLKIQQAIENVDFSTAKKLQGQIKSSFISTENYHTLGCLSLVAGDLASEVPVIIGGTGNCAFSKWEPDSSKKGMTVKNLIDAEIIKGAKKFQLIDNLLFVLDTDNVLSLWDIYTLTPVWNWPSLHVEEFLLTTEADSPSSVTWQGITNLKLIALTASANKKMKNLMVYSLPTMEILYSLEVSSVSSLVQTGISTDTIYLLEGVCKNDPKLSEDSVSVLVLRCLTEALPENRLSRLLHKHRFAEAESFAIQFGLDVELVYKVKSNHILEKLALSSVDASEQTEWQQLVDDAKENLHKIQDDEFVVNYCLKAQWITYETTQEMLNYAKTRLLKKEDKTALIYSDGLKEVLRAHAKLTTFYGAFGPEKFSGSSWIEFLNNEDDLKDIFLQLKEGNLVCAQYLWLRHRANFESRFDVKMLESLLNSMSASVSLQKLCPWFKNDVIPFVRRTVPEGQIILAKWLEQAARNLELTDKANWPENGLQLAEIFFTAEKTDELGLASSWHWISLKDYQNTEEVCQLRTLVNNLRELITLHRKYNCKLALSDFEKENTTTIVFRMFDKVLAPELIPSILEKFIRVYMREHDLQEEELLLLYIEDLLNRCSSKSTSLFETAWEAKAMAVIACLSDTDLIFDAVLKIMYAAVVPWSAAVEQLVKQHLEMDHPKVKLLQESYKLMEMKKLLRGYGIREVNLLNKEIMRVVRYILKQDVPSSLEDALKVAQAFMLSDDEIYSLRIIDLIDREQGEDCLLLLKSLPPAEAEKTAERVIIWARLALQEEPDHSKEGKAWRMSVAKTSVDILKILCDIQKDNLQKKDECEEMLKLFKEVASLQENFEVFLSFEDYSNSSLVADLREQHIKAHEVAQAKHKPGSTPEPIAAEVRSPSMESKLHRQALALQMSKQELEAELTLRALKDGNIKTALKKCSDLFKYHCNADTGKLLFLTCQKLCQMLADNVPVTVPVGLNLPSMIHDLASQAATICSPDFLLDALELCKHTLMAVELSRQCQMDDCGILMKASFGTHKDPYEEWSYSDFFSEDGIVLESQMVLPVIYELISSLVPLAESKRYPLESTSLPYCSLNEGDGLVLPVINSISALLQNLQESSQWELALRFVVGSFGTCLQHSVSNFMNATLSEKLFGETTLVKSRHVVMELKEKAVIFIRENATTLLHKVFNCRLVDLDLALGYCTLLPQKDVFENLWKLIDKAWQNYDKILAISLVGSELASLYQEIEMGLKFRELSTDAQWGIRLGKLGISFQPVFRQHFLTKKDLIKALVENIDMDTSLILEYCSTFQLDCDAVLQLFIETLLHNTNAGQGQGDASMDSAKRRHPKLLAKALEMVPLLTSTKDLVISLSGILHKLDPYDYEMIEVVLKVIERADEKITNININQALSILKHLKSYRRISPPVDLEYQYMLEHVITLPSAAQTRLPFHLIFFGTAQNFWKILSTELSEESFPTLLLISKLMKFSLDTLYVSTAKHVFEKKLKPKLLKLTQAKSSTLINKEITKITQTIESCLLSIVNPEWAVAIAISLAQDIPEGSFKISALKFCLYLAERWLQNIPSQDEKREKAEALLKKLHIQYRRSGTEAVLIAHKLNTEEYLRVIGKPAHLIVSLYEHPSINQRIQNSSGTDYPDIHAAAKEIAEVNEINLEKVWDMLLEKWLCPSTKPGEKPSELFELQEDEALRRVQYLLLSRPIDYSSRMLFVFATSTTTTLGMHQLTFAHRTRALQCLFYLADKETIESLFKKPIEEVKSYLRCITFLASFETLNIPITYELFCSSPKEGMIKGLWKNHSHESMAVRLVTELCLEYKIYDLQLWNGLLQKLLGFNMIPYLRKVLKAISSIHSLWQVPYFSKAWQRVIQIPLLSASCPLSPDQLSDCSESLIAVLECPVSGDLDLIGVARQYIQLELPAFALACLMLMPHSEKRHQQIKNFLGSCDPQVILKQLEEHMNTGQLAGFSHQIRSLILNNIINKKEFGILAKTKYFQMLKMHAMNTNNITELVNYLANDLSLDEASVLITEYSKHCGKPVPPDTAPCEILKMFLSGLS
UniProt Q8TD16: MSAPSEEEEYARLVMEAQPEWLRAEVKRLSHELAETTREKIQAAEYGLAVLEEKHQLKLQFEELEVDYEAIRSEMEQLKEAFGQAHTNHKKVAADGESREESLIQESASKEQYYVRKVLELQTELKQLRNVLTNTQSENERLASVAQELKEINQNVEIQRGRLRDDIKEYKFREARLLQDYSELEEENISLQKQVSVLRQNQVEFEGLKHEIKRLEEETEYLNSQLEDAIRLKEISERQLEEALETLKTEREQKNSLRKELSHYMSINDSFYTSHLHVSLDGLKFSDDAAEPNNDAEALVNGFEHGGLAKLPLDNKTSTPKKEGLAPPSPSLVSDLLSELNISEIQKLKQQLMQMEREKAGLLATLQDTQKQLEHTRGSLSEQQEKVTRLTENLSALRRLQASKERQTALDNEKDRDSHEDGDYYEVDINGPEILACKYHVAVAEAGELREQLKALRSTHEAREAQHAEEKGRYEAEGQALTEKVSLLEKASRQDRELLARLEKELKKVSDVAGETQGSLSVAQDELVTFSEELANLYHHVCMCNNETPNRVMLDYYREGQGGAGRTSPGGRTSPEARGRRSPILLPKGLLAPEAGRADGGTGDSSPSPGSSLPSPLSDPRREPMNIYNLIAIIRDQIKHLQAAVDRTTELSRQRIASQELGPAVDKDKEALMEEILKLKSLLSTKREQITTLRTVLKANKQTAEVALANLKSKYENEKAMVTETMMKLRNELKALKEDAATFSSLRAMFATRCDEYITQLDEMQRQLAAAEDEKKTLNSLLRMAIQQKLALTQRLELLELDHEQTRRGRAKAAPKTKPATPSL

Test [1] has as its target p25-6His (PE complex plasmid) (UniProt Q9BTE1). The test can be described thus: co-purification (HisTrap, anion exchange, SEC); four PE subunits co-expressed in insect cells; captured through p25-6His on HisTrap, Resource Q, Superdex 200 16/60; SDS-PAGE of the gel-filtration peak.
Test [2] has as its target Dynactin pointed-end (PE) capping complex (p25, p27, p62, Arp11) (UniProt Q9NZ32). The test can be described thus: SEC; PE complex 3 µM mixed with Spindly construct 8 µM (Fig. 3 F: 4 µM and 10 µM), at least 1 h on ice; Superdex 200 5/150 (named in the legend of Fig. 5); 4°C, Spindly buffer (50 mM Hepes pH 8.0, 250 mM NaCl, 2 mM TCEP); fractions on SDS-PAGE; both purified. A general note: Size exclusion chromatography separates by hydrodynamic size, large species first.

The target of test [3] is ROD–Zwilch–ZW10 (RZZ) complex (UniProt P50748). The test can be described thus: SEC; Superose 6 5/150; RZZ 2 µM, pre-farnesylated mCh-Spindly construct 6 µM; both purified.

These are yes or no findings as the source states them, for the method shown. Some binding calls cover weakened binding; strength is not graded here.

For the substance “Arp11 (PE complex plasmid) (from UniProt Q9NZ32 1-417)”, the binding result in test [1] is given as “binds”.

As for “^mChSpindly^Chimera (mCh-tagged BICD2-Spindly chimeric construct) (from UniProt Q8TD16 1-292; Q96EA4 251-605)”, in test [2], the binding entry is on record as “binds”. Consider “p27 (PE complex plasmid) (from UniProt O00399 1-190)”, for which, in test [1], the binding entry is listed as “binds”. For “pre-farnesylated ^mChSpindly^Chimera (from UniProt Q8TD16 1-292; Q96EA4 251-605)”, in test [3], the binding entry is reported as “binds”.
